Source: patent US20090175881A1 (SCHERING, published 2009)
No constants are given. Whether binding was seen depends on the method and setting. Some results given as binding are weak or reduced against the parent protein; the word gives no strength.

Key:
mouse IL-17A = target: T1, mouse IL-17A (mouse, UniProt Q62386 26-158, limits assumed); experiment: ECL (Origen)
T1 construct: also called mu IL-17A; mu IL-17
T1 sequence (looked up): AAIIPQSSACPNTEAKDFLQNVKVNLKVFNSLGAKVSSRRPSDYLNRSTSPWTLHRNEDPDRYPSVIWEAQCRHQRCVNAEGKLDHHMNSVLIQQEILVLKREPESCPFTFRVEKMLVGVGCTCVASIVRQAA

[1] = target: cynomolgus monkey IL-17A (cynomolgus monkey); experiment: ECL (Origen)
[2] = target: cynomolgus monkey IL-17A (cynomolgus monkey); experiment: KinExA

Measured: binding

B1: rat 1D10 (antibody, V domains shown)
VH: QVQLKESGPGLVQPSQTLSLTCTVSGFSLTNYYVHWVRQPPGKGLEWMGGVWNDGDTSYNSVLRSRLSITRDTSKSQVLLKMSSLQTEDTATYYCAREGREGFVGYYVMDAWGPGASVTVSS
VL: DIQMTQSPSFLSASVGERVTLSCKASQNINKYLDWFQQKLGEAPKLLIYNADNLHTGIPSRFSGSGSFSDFILTISSLQPEDDATYFCLQRESWPYTFGAGTKLELKR
notes: Parental rat monoclonal antibody; also called ID10; anti-IL-17A antibody 1D10
binds: all assays above

B2: rat 23E12 (antibody, V domains shown)
VH: QVQLKESGPGLVQPSQTLSLTCTVFGFSLTNNGVTWVRQPPGKGLEWIAEVSSGGSTDYNSALKSRLSISRDTSKSQVFLRMNSLQTEDTAIYFCARQEVFTGLLDYWGQGVMVTVSS
VL: DIQMTQSPASLSASLGETVTIQCQASEDIYSGLAWYHQKPGKSPQLLILGASRLHDGVPSRFSGSGSGIEYSLKINNMQTEDEGIYFCQQGLKYPPTFGGGTKLELKR
notes: Parental rat monoclonal antibody (hybridoma PTA-7740)
binds: all assays above
